Measured values reported in PubChem BioAssay AID588590 (National Center for Advancing Translational Sciences (NCATS), 2011).
Among all 390,000 compounds or so, about 4,000 (1%) were called active. The inconclusive results got no clear call from the source; some entries with a clear call stand among them for comparison. Calls come from the whole dose curve; as a rule, active = well fitted inhibition curve with a large enough effect; inconclusive = small, poorly fitted or top-dose-only effect, or another doubt; inactive = no such curve, though single readings can be large or run the other way. Where the call is inconclusive, the potency comes from a doubtful curve fit.

Sequences of proteins named here, by UniProt entry; tags and fusion partners are left off. A change or cut given only in a name is not applied to a line headed by its entry.
UniProt Q9UNA4: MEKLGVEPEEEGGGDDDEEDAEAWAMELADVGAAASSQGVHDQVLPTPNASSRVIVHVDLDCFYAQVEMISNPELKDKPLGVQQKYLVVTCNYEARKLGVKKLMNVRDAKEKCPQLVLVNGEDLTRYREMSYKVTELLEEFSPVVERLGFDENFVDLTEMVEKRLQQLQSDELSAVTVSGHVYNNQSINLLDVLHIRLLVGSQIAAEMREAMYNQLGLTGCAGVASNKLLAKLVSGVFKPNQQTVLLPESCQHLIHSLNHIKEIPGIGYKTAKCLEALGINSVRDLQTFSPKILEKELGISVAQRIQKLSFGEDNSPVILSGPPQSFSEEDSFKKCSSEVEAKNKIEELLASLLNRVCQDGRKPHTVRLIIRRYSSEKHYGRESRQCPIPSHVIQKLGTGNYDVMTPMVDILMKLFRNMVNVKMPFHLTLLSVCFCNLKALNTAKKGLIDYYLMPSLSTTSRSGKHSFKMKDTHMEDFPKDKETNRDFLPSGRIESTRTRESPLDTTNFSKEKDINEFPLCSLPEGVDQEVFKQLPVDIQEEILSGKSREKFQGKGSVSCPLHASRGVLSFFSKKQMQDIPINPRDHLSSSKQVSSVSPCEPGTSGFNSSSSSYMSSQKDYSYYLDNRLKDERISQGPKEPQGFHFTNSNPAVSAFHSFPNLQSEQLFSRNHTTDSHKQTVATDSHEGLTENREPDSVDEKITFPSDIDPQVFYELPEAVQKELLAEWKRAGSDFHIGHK

molecular target: DNA polymerase iota (Homo sapiens) (UniProt Q9UNA4); experiment: qHTS for Inhibitors of Polymerase Iota; details: Pol iota fluorescent replication assay, 10 min; series mostly up to 115 µM
Outline: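 Pol iota at 10 nM preincubated 15 min with compounds at room temperature; reaction started with fluorescent substrate, 50 nM final. Fluorescence read kinetically at 0 and 10 min; buffer-only wells as negative control.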
Potency is the fitted concentration of half-maximal effect.

Row | SMILES | Potency
1 | CCCCCCNC(=O)N[C@@H](Cc1ccc(O)cc1)C(=O)NCCC[C@H]1CN2C(=NC[C@H]2C)N1CC1CCC1 | inconclusive: 39.8 µM [inhibitor, single point]
2 | COC(=O)[C@]1(C)C[C@H]1[C@H](NP(=O)(c1ccccc1)c1ccccc1)c1ccccc1 | inconclusive: 2.51 µM [inhibitor, full curve, poor fit]
3 | O=C(Cc1ccccc1)OCCNC(=O)c1cccnc1 | inconclusive: 20 µM [inhibitor, partial curve, poor fit]
4 | Cc1cc(C)cc(-n2c(/C=C/c3cccc(F)c3)nc3ccccc3c2=O)c1 | inactive
5 | COc1ccc(N2C(=O)CS(=O)C(c3ccccc3)C2=O)cc1 (centres undefined) | inconclusive: 39.8 µM [inhibitor, single point]
6 | O=C1NC(=O)C(=Cc2cc3c(cc2[N+](=O)[O-])OCO3)C(=O)N1 | inconclusive: 22.4 µM [inhibitor, partial curve]
7 | C=C(COC(=O)CCC(=O)O)CC1CC(O)[C@]2(C)OC3CC4OC5C[C@]6(C)O[C@]7(C)CCC8OC9C[C@]%10(C)OC%11C(C)=CC(=O)OC%11CC%10OC9C[C@@H](C)C8OC7CC6O[C@]5(C)C/C=C\C4OC3CC2O1 (some centres undefined) | inconclusive: 11.2 µM [inhibitor, partial curve, poor fit]
8 | O=C(N/N=C1/CN2CCC1CC2)c1cc2ccccc2cc1O | inconclusive: 35.5 µM [inhibitor, partial curve, poor fit]
9 | CCCCOc1ccc(CN2C(=O)C(=O)c3cc(C)ccc32)cc1OC | inconclusive: 79.4 µM [inhibitor, single point]
10 | COc1ccc(CN2C(=O)NC(=O)/C(=C/c3ccoc3)C2=O)cc1 | active: 10 µM
11 | CCCCOc1ccc(C(=O)NCCc2csc(-c3ccc(OC)cc3)n2)cc1 | inconclusive: 70.8 µM [inhibitor, partial curve, poor fit]
12 | CCc1c(C(=O)OC)ncc2[nH]c3cc(OC)c(OC)cc3c12 | inconclusive: 22.4 µM [inhibitor, partial curve, poor fit]
13 | COC(=O)C1=C(c2ccc(Cl)c(C(F)(F)F)c2)C[C@@H]2CC[C@H]1N2C(=O)NCCOc1ccc(OC)cc1 | inconclusive: 39.8 µM [inhibitor, partial curve, poor fit]
14 | CCOc1ccc(NC(=S)N2CCC(NC(=O)c3ccccc3C)CC2)cc1 | inactive
15 | Cc1cc(C=C2C(=O)N(C)C(=S)N(C)C2=O)c(C)n1-c1ccncc1 | inactive
16 | COc1cc2c(cc1OC)C(c1c(O)n(CCc3ccccc3)c(=S)[nH]c1=O)NCC2 (centres undefined) | inconclusive: 14.1 µM [inhibitor, full curve, poor fit]
17 | CC(C)Oc1ccc(CNC(=O)C2CCCN(S(=O)(=O)c3ccc4c(ccn4C)c3)C2)cc1 (centres undefined) | inactive
18 | Cc1ccccc1C(=O)NNC(=S)NC(=O)COc1ccccc1 | inconclusive: 39.8 µM [inhibitor, single point]
19 | Clc1cccc(/C=N\Nc2nccs2)c1 | inconclusive: 39.8 µM [inhibitor, partial curve, poor fit]
20 | COC(=O)C1=C(C)NC(=S)NC1c1ccc(N(CCCl)CCCl)cc1Cl (centres undefined) | inactive

Looked up above:
Under Potency, O=C1NC(=O)C(=Cc2cc3c(cc2[N+](=O)[O-])OCO3)C(=O)N1 has inconclusive: 22.4 µM [inhibitor, partial curve]
Under Potency, COC(=O)[C@]1(C)C[C@H]1[C@H](NP(=O)(c1ccccc1)c1ccccc1)c1ccccc1 has inconclusive: 2.51 µM [inhibitor, full curve, poor fit]

Next records follow:

Row | SMILES | Potency
21 | C/C=C(\C)C(=O)N[C@@H](c1ccccc1)[C@@H](O)C(=O)O[C@H]1C[C@@]2(O)[C@@H](OC(=O)c3ccccc3)C3[C@](C)(C(=O)[C@H](OC(C)=O)C(=C1C)C2(C)C)[C@@H](O)C[C@H]1OC[C@@]31OC(C)=O (some centres undefined) | inactive
22 | O=[N+]([O-])c1ccc(N2CCCC2)c(F)c1Br | inconclusive: 17.8 µM [inhibitor, partial curve, poor fit]
23 | CSc1ccc(CN2CCN(C(=O)Cc3ccccc3)CC2)cc1 | inconclusive: 22.4 µM [inhibitor, full curve, poor fit]
24 | CN(C)CCN(C(=O)c1ccc(S(=O)(=O)N2CCc3ccccc32)cc1)c1nc2ccc(F)cc2s1 | inconclusive: 14.1 µM [inhibitor, full curve, poor fit]
25 | C=CCN1C(=O)NC(=O)/C(=C/c2cc3c4c(c2)CCCN4CCC3)C1=O | active: 20 µM
26 | COc1ccc2oc(=O)c(C(=O)NCCc3c(C)[nH]c4ccc(F)cc34)cc2c1 | inconclusive: 17.8 µM [inhibitor, single point]
27 | Cc1sc(NC(=O)CSc2n[nH]c(N)n2)c(C#N)c1C | inconclusive: 28.2 µM [inhibitor, partial curve, poor fit]
28 | COc1ccc(CN2CCN(Cc3ccccc3OC)CC2)cc1 | inconclusive: 10 µM [inhibitor, single point]
29 | C#CCN(C)[C@H](C)Cc1ccccc1 | active: 79.4 µM
30 | O=C(O)c1sccc1Oc1ccc(F)cc1[N+](=O)[O-] | inconclusive: 17.8 µM [inhibitor, full curve]
31 | COc1cccc(N2C(=O)NC(=O)/C(=C\c3cn(C)c4ccccc34)C2=O)c1 | inconclusive: 3.98 µM [inhibitor, single point]
32 | CN1C(=O)/C(=C/C=C/c2ccco2)C(=O)NC1=S | active: 10 µM
33 | O=C1NC(=S)NC(=O)C1=Cc1ccc(Br)s1 | inconclusive: 63.1 µM [inhibitor, partial curve, poor fit]
34 | COc1ccc(C(=O)N/N=C\c2coc3ccc(C)cc3c2=O)cc1 | inconclusive: 100 µM [inhibitor, partial curve, poor fit]
35 | CCC(=O)Nc1nc2ccccc2n1CCN(C)C | inconclusive: 20 µM [inhibitor, full curve, poor fit]
36 | CN(C)c1nc(-c2ccccc2)[n+](C)s1 | inconclusive: 15.8 µM [inhibitor, partial curve, poor fit]
37 | CN1C(=O)C(=Cc2ccc(SC3CCCCC3)o2)C(=O)N(C)C1=O | inconclusive: 22.4 µM [inhibitor, partial curve]
38 | CCC1(Oc2ccccc2)C(=O)NC(=O)NC1=O | inactive
39 | O=C1NC(=O)C(=Cc2ccc(-c3ccc(F)cc3O)o2)C(=O)N1 | inconclusive: 17.8 µM [inhibitor, full curve, poor fit]
